# Assay results as given in patent EP4089103A1, “CLPCP PROTEASE-BINDING CYCLIC HEPTAPEPTIDES” (priority 2021, dated 2022).
# Part of at least one peptide drawing is inferred or uncertain, most often the ends. Non-standard residues stand in square brackets, D forms with d. Residues, ends and D or L forms follow the SMILES beside them. *: point of attachment. X1 = Cc1sc2c(c1C)C(c1ccc(Cl)cc1)=N[C@@H](CC(=O)NCCCOCCOCCOCCCN*)c1nnc(C)n1-2; Phe(βR-OMe) = CO[C@H](c1ccccc1)[C@H](N)C(=O)O; NMeL = CN[C@@H](CC(C)C)C(=O)O; NMeK = CN[C@@H](CCCCN)C(=O)O
# Legend:
# mycobacterial proteome = experiment: Selectivity of protein degradation, tandem mass tag (TMT) mass spectrometric analysis of Msm lysates; type: cell-based, M. smegmatis; details: compared to vehicle treatment (DMSO), triplicate analysis (Figure 4)
# BRDTBD1 = biological target: T1, BRDTBD1 (Homo sapiens, UniProt Q58F21); experiment: In vivo degradation assay in live mycobacteria expressing BRDTBD1 (capillary western, Wes); type: cell-based, M. smegmatis; details: 2 hours incubation; 100 µM, 10 µM or 1 µM BacPROTAC-3, 100 µM sCym-1, 100 µM JQ1; normalized to non-treated cells (Figure 3)
# T1 construct: BRDTBD1 (residues 21-137); hexahistidine followed by TEV cleavage site (N); expressed in transfected cells; host or cells: M. smegmatis mc2-155 carrying pMyC-BRDTBD1, acetamide-induced
# M. smegmatis ClpC1P1P2 = biological target: T2, M. smegmatis ClpC1P1P2 (Mycolicibacterium smegmatis, UniProt A0R574); experiment: In vitro degradation assay of BRDTBD1 with M. smegmatis ClpC1P1P2; type: biochemical; details: 2 µM substrate, 2 hours at 37 °C, SDS-PAGE (Figure 2)
# T2 construct: made in house; host or cells: E. coli Rosetta (ClpC1, ClpP1, ClpP2); E. coli BL21 (DE3) or Rosetta (BRDTBD1)
smiles,measurement,setting,value
CC[C@H](C)[C@@H]1NC(=O)[C@H](CC(C)C)N(C)C(=O)[C@H](C(C)C)NC(=O)[C@H]([C@H](OC)c2ccccc2)NC(=O)[C@H](CCC(=O)NCCCOCCOCCOCCCNC(=O)C[C@@H]2N=C(c3ccc(Cl)cc3)c3c(sc(C)c3C)-n3c(C)nnc32)NC(=O)[C@H](CCCCN)N(C)C(=O)[C@H](Cc2c[nH]c3ccccc23)NC1=O [Cym_bacPROTAC_3] (cyclo(E(X1)[Phe(βR-OMe)]V[NMeL]IW[NMeK])),fold-change in abundance of 2912 proteins,mycobacterial proteome,only BRDTBD1 was significantly (p < 0.001) depleted
same,levels of BRDTBD1 expressed in M. smegmatis cells after treatment,BRDTBD1,induced BRDTBD1 degradation in a concentration dependent manner
same,degradation of BRDTBD1,M. smegmatis ClpC1P1P2,induce degradation of BRDTBD1 in a stereo-specific manner
